# Tested on: BAF complex subunits and histone proteins
# Test: Mass spectrometry proteomics of purified HA-SS18 WT and HA-SS18-SSX1 complexes (Tables 5A-5E)
# Design: species or system human
# Details: for Total / Unique: HA-SS18SSX1_CHR_peptides; for Total: total peptides of the identified protein; for Unique: unique peptides of the identified protein; for Total (total peptides) / Unique (unique peptides): HA-SS18WT_CHR_peptides: protein identified in HA-SS18 WT BAF complex purification from nuclease-treated solubilized chromatin (CHR)
# [1] = HA-SS18WT_CHR_peptides: HA-SS18 WT purification from nuclease-treated solubilized chromatin (CHR), HEK-293T, label = protein identified
# [2] = HA-SS18SSX1_NE_peptides: protein co-purified with HA-SS18-SSX1 BAF complexes from soluble nuclear extract (NE), HEK-293T cells
# [3] = HA-SS18WT_NE_peptides: HA-SS18 WT complexes purified from nuclear extract (NE), HEK-293T, label = protein identified (Gene Symbol)
Molecule,Total,Unique,Total (peptides) [1],Unique (peptides) [1],Total (peptides) [2],Unique (peptides) [2],Total (peptides) [3],Unique (peptides) [3],Total (total peptides) (HEK-293T),Unique (unique peptides) (HEK-293T)
"NEFM (protein, UniProt P07197 2-916, looked up) Neurofilament medium …: SYTLDSLGNPSAYRRVTETRSSFSRVSGSPSSGFRSQSWSRGSPSTVSSSYKRSMLAPRLAYSSAMLSSAESSLDFSQSSSLLNGGSGPGGDYKLSRSNEKEQLQGLNDRFAGYIEKVHYLEQQNKEIEAEIQALRQKQASHAQLGDAYDQEIRELRATLEMVNHEKAQVQLDSDHLEEDIHRLKERFEEEARLRDDTEAAIRALRKDIEEASLVKVELDKKVQSLQDEVAFLRSNHEEEVADLLAQIQASHITVERKDYLKTDISTALKEIRSQLESHSDQNMHQAEEWFKCRYAKLTEAAEQNKEAIRSAKEEIAEYRRQLQSKSIELESVRGTKESLERQLSDIEERHNHDLSSYQDTIQQLENELRGTKWEMARHLREYQDLLNVKMALDIEIAAYRKLLEGEETRFSTFAGSITGPLYTHRPPITISSKIQKPKVEAPKLKVQHKFVEEIIEETKVEDEKSEMEEALTAITEELAVSMKEEKKEAAEEKEEEPEAEEEEVAAKKSPVKATAPEVKEEEGEKEEEEGQEEEEEEDEGAKSDQAEEGGSEKEGSSEKEEGEQEEGETEAEAEGEEAEAKEEKKVEEKSEEVATKEELVADAKVEKPEKAKSPVPKSPVEEKGKSPVPKSPVEEKGKSPVPKSPVEEKGKSPVPKSPVEEKGKSPVSKSPVEEKAKSPVPKSPVEEAKSKAEVGKGEQKEEEEKEVKEAPKEEKVEKKEEKPKDVPEKKKAESPVKEEAVAEVVTITKSVKVHLEKETKEEGKPLQQEKEKEKAGGEGGSEEEGSDKGAKGSRKEDIAVNGEVEGKEEVEQETKEKGSGREEEKGVVTNGLDLSPADEKKGGDKSEEKVVVTKTVEKITSEGGDGATKYITKSVTVTQKVEEHEETFEEKLVSTKKVEKVTSHAIVKEVTQSD",2,2,–,–,–,–,–,–,–,–
"HNRNPH3 (protein, UniProt P31942 1-346, looked up) Heterogeneous nuclear …: MDWVMKHNGPNDASDGTVRLRGLPFGCSKEEIVQFFQGLEIVPNGITLTMDYQGRSTGEAFVQFASKEIAENALGKHKERIGHRYIEIFRSSRSEIKGFYDPPRRLLGQRPGPYDRPIGGRGGYYGAGRGSMYDRMRRGGDGYDGGYGGFDDYGGYNNYGYGNDGFDDRMRDGRGMGGHGYGGAGDASSGFHGGHFVHMRGLPFRATENDIANFFSPLNPIRVHIDIGADGRATGEADVEFVTHEDAVAAMSKDKNNMQHRYIELFLNSTPGGGSGMGGSGMGGYGRDGMDNQGGYGSVGRMGMGNNYSGGYGTPDGLGGYGRGGGGSGGYYGQGGMSGGGWRGMY",2,2,3,3,–,–,–,–,–,–
"NOL9 (protein, UniProt Q5SY16 2-702, looked up) Polynucleotide …: ADSGLLLKRGSCRSTWLRVRKARPQLILSRRPRRRLGSLRWCGRRRLRWRLLQAQASGVDWREGARQVSRAAAARRPNTATPSPIPSPTPASEPESEPELESASSCHRPLLIPPVRPVGPGRALLLLPVEQGFTFSGICRVTCLYGQVQVFGFTISQGQPAQDIFSVYTHSCLSIHALHYSQPEKSKKELKREARNLLKSHLNLDDRRWSMQNFSPQCSIVLLEHLKTATVNFITSYPGSSYIFVQESPTPQIKPEYLALRSVGIRREKKRKGLQLTESTLSALEELVNVSCEEVDGCPVILVCGSQDVGKSTFNRYLINHLLNSLPCVDYLECDLGQTEFTPPGCISLLNITEPVLGPPFTHLRTPQKMVYYGKPSCKNNYENYIDIVKYVFSAYKRESPLIVNTMGWVSDQGLLLLIDLIRLLSPSHVVQFRSDHSKYMPDLTPQYVDDMDGLYTKSKTKMRNRRFRLAAFADALEFADEEKESPVEFTGHKLIGVYTDFAFRITPRNRESHNKILRDLSILSYLSQLQPPMPKPLSPLHSLTPYQVPFNAVALRITHSDVAPTHILYAVNASWVGLCKIQDDVRGYTNGPILLAQTPICDCLGFGICRGIDMEKRLYHILTPVPPEELRTVNCLLVGAIAIPHCVLKCQRGIEGTVPYVTTDYNFKLPGASEKIGAREPEEAHKEKPYRRPKFCRKMK",2,2,–,–,1,1,3,3,–,–
"RRP15 (protein, UniProt Q9Y3B9 2-282, looked up) RRP15-like protein: AAAAPDSRVSEEENLKKTPKKKMKMVTGAVASVLEDEATDTSDSEGSCGSEKDHFYSDDDAIEADSEGDAEPCDKENENDGESSVGTNMGWADAMAKVLNKKTPESKPTILVKNKKLEKEKEKLKQERLEKIKQRDKRLEWEMMCRVKPDVVQDKETERNLQRIATRGVVQLFNAVQKHQKNVDEKVKEAGSSMRKRAKLISTVSKKDFISVLRGMDGSTNETASSRKKPKAKQTEVKSEEGPGWTILRDDFMMGASMKDWDKESDGPDDSRPESASDSDT",2,2,–,–,–,–,–,–,1,1
"NCOA5 (protein, UniProt Q9HCD5 1-579, looked up) Nuclear receptor coactivator 5: MNTAPSRPSPTRRDPYGFGDSRDSRRDRSPIRGSPRREPRDGRNGRDARDSRDIRDPRDLRDHRHSRDLRDHRDSRSVRDVRDVRDLRDFRDLRDSRDFRDQRDPMYDRYRDMRDSRDPMYRREGSYDRYLRMDDYCRRKDDSYFDRYRDSFDGRGPPGPESQSRAKERLKREERRREELYRQYFEEIQRRFDAERPVDCSVIVVNKQTKDYAESVGRKVRDLGMVVDLIFLNTEVSLSQALEDVSRGGSPFAIVITQQHQIHRSCTVNIMFGTPQEHRNMPQADAMVLVARNYERYKNECREKEREEIARQAAKMADEAILQERERGGPEEGVRGGHPPAIQSLINLLADNRYLTAEETDKIINYLRERKERLMRSSTDSLPGPISRQPLGATSGASLKTQPSSQPLQSGQVLPSATPTPSAPPTSQQELQAKILSLFNSGTVTANSSSASPSVAAGNTPNQNFSTAANSQPQQRSQASGNQPPSILGQGGSAQNMGPRPGAPSQGLFGQPSSRLAPASNMTSQRPVSSTGINFDNPSVQKALDTLIQSGPALSHLVSQTTAQMGQPQAPMGSYQRHY",2,2,–,–,–,–,–,–,1,1
"SENP7 (protein, UniProt Q9BQF6 1-1050, looked up) Sentrin-specific protease 7: MDKRKLGRRPSSSEIITEGKRKKSSSDLSEIRKMLNAKPEDVHVQSPLSKFRSSERWTLPLQWERSLRNKVISLDHKNKKHIRGCPVTSKSSPERQLKVMLTNVLWTDLGRKFRKTLPRNDANLCDANKVQSDSLPSTSVDSLETCQKLEPLRQSLNLSERIPRVILTNVLGTELGRKYIRTPPVTEGSLSDTDNLQSEQLSSSSDGSLESYQNLNPHKSCYLSERGSQRSKTVDDNSAKQTAHNKEKRRKDDGISLLISDTQPEDLNSGSRGCDHLEQESRNKDVKYSDSKVELTLISRKTKRRLRNNLPDSQYCTSLDKSTEQTKKQEDDSTISTEFEKPSENYHQDPKLPEEITTKPTKSDFTKLSSLNSQELTLSNATKSASAGSTTETVENSNSIDIVGISSLVEKDENELNTIEKPILRGHNEGNQSLISAEPIVVSSDEEGPVEHKSSEILKLQSKQDRETTNENESTSESALLELPLITCESVQMSSELCPYNPVMENISSIMPSNEMDLQLDFIFTSVYIGKIKGASKGCVTITKKYIKIPFQVSLNEISLLVDTTHLKRFGLWKSKDDNHSKRSHAILFFWVSSDYLQEIQTQLEHSVLSQQSKSSEFIFLELHNPVSQREELKLKDIMTEISIISGELELSYPLSWVQAFPLFQNLSSKESSFIHYYCVSTCSFPAGVAVAEEMKLKSVSQPSNTDAAKPTYTFLQKQSSGCYSLSITSNPDEEWREVRHTGLVQKLIVYPPPPTKGGLGVTNEDLECLEEGEFLNDVIIDFYLKYLILEKASDELVERSHIFSSFFYKCLTRKENNLTEDNPNLSMAQRRHKRVRTWTRHINIFNKDYIFVPVNESSHWYLAVICFPWLEEAVYEDFPQTVSQQSQAQQSQNDNKTIDNDLRTTSTLSLSAEDSQSTESNMSVPKKMCKRPCILILDSLKAASVQNTVQNLREYLEVEWEVKLKTHRQFSKTNMVDLCPKVPKQDNSSDCGVYLLQYVESFFKDPIVNFELPIHLEKWFPRHVIKTKREDIRELILKLHLQQQKGSSS",2,2,–,–,–,–,–,–,2,2
FAM207A (protein) MGKVRGLRARVHQAAVRPKGEAAPGPAPPAPEATPPPASAAGKDWAFINTNIFARTKIDPSALVQKLELDVRSVTSVRRGEAGSSARSVPSIRRGAEAKTVLPKKEKMKLRREQWLQKIEAIKLAEQKHREERRRRATVVVGDLHPLRDALPELLGLEAGSRRQARSRESNKPRPSELSRMSAAQRQQLLEEERTRFQELLASPAYRASPLVAIGQTLARQMQLEDGGQL,2,2,–,–,2,2,–,–,2,2
"RPS19BP1 (protein, UniProt Q86WX3 1-136, looked up) Active regulator of SIRT1: MSAALLRRGLELLAASEAPRDPPGQAKPRGAPVKRPRKTKAIQAQKLRNSAKGKVPKSALDEYRKRECRDHLRVNLKFLTRTRSTVAESVSQQILRQNRGRKACDRPVAKTKKKKAEGTVFTEEDFQKFQQEYFGS",2,2,–,–,–,–,–,–,2,2
